Measurements: PMC9273970, “Mambalgin-2 Inhibits Lung Adenocarcinoma Growth and Migration by Selective Interaction With ASIC1/α-ENaC/γ-ENaC Heterotrimer” (Frontiers in Oncology, 2022)

T1: recombinant mambalgin-2 from Dendroaspis polylepis (Dendroaspis polylepis) (UniProt P0DKS3)
T1 sequence: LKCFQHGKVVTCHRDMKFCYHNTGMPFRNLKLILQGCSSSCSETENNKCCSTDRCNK


How the values were obtained:
[1] = biological target: T1, recombinant mambalgin-2 from Dendroaspis polylepis (Dendroaspis polylepis); assay: pull-down; mambalgin-2 (1 mg/ml) coupled to NHS-activated Sepharose 4 Fast Flow; membrane fraction of A549 cells solubilized in 2% Triton X-100, diluted 10 times with TBS pH 8.0, 16 h at 4°C; washes incl. TBS + 1 M NaCl + 0.5% Triton X-100; elution 200 mM glycine pH 2.6; Western blot; only the target purified
[2] = biological target: ASIC1a subunit (acid-sensing ion channel 1a) (human (endogenous in A549)); assay: co-IP; anti-ASIC1a antibody (sheep, ABIN350049) on Protein-A agarose; pre-cleared membrane fraction of A549 cells solubilized in 2% Triton X-100, 16 h at 4°C in TBS; washes incl. TBS + 1 M NaCl + 0.5% Triton X-100; Western blot for α-ENaC and γ-ENaC

| binding [2] | Molecule | binding [1] |
| --- | --- | --- |
|  | ASIC1a subunit (acid-sensing ion channel 1a) (human (endogenous in A549)) | binds |
| binds | γ-ENaC subunit (epithelial Na+ channel gamma) (protein, UniProt P51170 1-649) MAPGEKIKAKIKKNLPVTGPQAPTIKELMRWYCLNTNTHGCRRIVVSRGRLRRLLWIGFTLTAVALILWQCALLVFSFYTVSVSIKVHFRKLDFPAVTICNINPYKYSTVRHLLADLEQETREALKSLYGFPESRKRREAESWNSVSEGKQPRFSHRIPLLIFDQDEKGKARDFFTGRKRKVGGSIIHKASNVMHIESKQVVGFQLCSNDTSDCATYTFSSGINAIQEWYKLHYMNIMAQVPLEKKINMSYSAEELLVTCFFDGVSCDARNFTLFHHPMHGNCYTFNNRENETILSTSMGGSEYGLQVILYINEEEYNPFLVSSTGAKVIIHRQDEYPFVEDVGTEIETAMVTSIGMHLTESFKLSEPYSQCTEDGSDVPIRNIYNAAYSLQICLHSCFQTKMVEKCGCAQYSQPLPPAANYCNYQQHPNWMYCYYQLHRAFVQEELGCQSVCKEACSFKEWTLTTSLAQWPSVVSEKWLLPVLTWDQGRQVNKKLNKTDLAKLLIFYKDLNQRSIMESPANSIEMLLSNFGGQLGLWMSCSVVCVIEIIEVFFIDFFSIIARRQWQKAKEWWAWKQAPPCPEAPRSPQGQDNPALDIDDDLPTFNSALHLPPALGTQVPGTPPPKYNTLRLERAFSNQLTDTQMLDEL |  |
| binds | α-ENaC subunit (epithelial Na+ channel alpha) (protein, UniProt P37088 1-669) MEGNKLEEQDSSPPQSTPGLMKGNKREEQGLGPEPAAPQQPTAEEEALIEFHRSYRELFEFFCNNTTIHGAIRLVCSQHNRMKTAFWAVLWLCTFGMMYWQFGLLFGEYFSYPVSLNINLNSDKLVFPAVTICTLNPYRYPEIKEELEELDRITEQTLFDLYKYSSFTTLVAGSRSRRDLRGTLPHPLQRLRVPPPPHGARRARSVASSLRDNNPQVDWKDWKIGFQLCNQNKSDCFYQTYSSGVDAVREWYRFHYINILSRLPETLPSLEEDTLGNFIFACRFNQVSCNQANYSHFHHPMYGNCYTFNDKNNSNLWMSSMPGINNGLSLMLRAEQNDFIPLLSTVTGARVMVHGQDEPAFMDDGGFNLRPGVETSISMRKETLDRLGGDYGDCTKNGSDVPVENLYPSKYTQQVCIHSCFQESMIKECGCAYIFYPRPQNVEYCDYRKHSSWGYCYYKLQVDFSSDHLGCFTKCRKPCSVTSYQLSAGYSRWPSVTSQEWVFQMLSRQNNYTVNNKRNGVAKVNIFFKELNYKTNSESPSVTMVTLLSNLGSQWSLWFGSSVLSVVEMAELVFDLLVIMFLMLLRRFRSRYWSPGRGGRGAQEVASTLASSPPSHFCPHPMSLSLSQPGPAPSPALTAPPPAYATLGPRPSPGGSAGASSSTCPLGGP |  |

No constants are given. Whether binding was seen depends on the method and setting. Binding seen in cells or lysates may run through a third protein. Binding can be weak; no strength is given.
